Here are results for nine substances from paper PMC8500230.

By UniProt entry, the sequences of proteins in these tests, tags left out. Where a name states a change or a piece, a line headed by the entry shows the natural chain unless it says otherwise.
UniProt Q9FV71: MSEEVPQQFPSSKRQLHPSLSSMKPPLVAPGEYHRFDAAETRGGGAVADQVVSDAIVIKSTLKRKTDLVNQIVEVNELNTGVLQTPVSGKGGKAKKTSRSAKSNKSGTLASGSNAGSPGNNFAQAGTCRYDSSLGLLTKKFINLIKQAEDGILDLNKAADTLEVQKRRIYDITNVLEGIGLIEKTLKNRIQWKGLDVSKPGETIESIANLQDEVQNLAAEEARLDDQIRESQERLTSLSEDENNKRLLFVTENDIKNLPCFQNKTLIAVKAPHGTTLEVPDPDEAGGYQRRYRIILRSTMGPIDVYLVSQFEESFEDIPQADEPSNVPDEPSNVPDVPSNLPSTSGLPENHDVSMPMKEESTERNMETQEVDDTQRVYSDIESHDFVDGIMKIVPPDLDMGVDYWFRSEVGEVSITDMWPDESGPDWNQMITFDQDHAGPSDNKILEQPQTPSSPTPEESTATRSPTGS
UniProt P24100: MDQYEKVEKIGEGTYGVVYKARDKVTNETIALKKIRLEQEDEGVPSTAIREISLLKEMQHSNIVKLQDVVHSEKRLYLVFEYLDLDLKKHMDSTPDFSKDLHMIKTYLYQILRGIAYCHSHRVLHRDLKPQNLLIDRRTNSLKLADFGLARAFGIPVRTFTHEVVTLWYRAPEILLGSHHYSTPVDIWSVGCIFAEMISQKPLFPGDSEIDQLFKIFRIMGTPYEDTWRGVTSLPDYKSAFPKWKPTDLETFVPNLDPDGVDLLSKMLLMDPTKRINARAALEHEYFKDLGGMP
UniProt Q8LSZ4: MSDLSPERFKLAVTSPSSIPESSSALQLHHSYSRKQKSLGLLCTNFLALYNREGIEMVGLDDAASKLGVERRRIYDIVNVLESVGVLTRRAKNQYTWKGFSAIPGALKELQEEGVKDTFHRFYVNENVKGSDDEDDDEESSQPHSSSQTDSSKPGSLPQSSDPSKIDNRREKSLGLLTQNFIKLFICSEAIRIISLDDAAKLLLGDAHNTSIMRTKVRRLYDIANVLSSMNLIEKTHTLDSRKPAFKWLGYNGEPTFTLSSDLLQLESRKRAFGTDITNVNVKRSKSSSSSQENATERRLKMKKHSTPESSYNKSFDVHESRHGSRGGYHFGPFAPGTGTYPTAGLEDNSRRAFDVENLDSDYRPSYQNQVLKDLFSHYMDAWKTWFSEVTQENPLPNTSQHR
UniProt F4JTM3: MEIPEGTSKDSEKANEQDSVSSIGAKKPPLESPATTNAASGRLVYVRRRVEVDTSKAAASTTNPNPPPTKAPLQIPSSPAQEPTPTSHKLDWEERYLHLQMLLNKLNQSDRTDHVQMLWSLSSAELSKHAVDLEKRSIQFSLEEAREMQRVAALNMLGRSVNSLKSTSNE
UniProt O22467: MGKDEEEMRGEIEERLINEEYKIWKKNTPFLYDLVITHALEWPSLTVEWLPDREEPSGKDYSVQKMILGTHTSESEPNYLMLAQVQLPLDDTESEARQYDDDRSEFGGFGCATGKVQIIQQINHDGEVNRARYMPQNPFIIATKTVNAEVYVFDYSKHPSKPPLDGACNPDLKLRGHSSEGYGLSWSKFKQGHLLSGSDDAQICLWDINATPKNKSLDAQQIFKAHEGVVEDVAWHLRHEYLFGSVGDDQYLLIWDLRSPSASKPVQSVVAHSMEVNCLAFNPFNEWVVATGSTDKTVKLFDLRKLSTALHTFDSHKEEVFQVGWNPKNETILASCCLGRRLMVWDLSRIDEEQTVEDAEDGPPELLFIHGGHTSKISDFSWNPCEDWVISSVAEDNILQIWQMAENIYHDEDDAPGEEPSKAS
UniProt F4J4R5: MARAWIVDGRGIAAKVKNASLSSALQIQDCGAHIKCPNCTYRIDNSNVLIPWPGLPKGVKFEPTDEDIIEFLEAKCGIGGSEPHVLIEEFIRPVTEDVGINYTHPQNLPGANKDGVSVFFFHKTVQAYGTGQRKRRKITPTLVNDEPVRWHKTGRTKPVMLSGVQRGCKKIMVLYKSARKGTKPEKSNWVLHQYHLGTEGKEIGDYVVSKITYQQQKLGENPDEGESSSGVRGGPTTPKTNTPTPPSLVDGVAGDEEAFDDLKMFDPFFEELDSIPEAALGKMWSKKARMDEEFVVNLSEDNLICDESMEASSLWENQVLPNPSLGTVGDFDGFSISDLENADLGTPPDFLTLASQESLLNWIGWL
UniProt F4IWE2: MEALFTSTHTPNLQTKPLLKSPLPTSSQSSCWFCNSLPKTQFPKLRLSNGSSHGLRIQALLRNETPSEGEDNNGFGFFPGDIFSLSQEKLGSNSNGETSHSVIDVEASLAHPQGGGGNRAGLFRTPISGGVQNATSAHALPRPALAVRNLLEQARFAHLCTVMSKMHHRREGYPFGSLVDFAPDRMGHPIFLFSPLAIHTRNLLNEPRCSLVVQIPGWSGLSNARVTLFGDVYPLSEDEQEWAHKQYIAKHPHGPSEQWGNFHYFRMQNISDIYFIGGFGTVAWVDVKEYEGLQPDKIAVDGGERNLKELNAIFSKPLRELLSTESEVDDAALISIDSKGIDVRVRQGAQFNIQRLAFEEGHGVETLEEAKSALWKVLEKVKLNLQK

These are yes or no findings as the source states them, for the method shown. In cells and extracts the contact can be indirect. These calls come from enrichment with a bait or labelling near it, and not all partners need be listed. For some assays here: A no says only that the protein was not detected with the bait. For some assays here: Sequences can lack the tags named with a protein.

For test [1], the target named is T1, C-terminally tagged TCX5 (TAP bait) (Arabidopsis thaliana) (UniProt Q9SZD1).
T1 sequence: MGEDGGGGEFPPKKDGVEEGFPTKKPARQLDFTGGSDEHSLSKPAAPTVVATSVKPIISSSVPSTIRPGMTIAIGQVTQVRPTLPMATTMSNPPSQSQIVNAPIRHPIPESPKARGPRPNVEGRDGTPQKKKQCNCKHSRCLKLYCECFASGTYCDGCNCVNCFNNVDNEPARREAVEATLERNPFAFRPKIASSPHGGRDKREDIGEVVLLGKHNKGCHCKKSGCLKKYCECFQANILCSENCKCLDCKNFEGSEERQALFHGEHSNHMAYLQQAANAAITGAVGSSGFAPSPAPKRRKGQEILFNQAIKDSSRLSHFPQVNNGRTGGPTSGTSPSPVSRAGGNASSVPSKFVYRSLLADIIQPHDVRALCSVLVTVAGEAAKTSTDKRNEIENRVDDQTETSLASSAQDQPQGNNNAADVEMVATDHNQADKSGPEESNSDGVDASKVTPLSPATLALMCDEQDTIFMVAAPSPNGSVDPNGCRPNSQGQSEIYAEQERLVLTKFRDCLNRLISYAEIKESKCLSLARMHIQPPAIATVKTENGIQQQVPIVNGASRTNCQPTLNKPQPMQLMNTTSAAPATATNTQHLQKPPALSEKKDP
The test is described as follows: affinity purification with mass spectrometry; tandem affinity purification (GS^rhino tag) from Arabidopsis PSB-D cell suspension cultures expressing the tagged bait under the 35S promoter; 30 uM cisplatin added 16 h before harvest; 100 mg total protein extract; on-bead digest, LC-MS/MS; in ….

Test [2] deals with T2, N-terminally tagged TCX5 (TAP bait) (Arabidopsis thaliana) (UniProt Q9SZD1).
T2 sequence: T1 sequence
The description is as above.

In test [3] the target is N-terminally tagged RBR1 (TAP bait) (Arabidopsis thaliana) (UniProt Q9LKZ3). The description is as above.
Test [4] has as its target T3, DPB-3xCFP (Arabidopsis thaliana) (UniProt Q9FNY2).
T3 sequence: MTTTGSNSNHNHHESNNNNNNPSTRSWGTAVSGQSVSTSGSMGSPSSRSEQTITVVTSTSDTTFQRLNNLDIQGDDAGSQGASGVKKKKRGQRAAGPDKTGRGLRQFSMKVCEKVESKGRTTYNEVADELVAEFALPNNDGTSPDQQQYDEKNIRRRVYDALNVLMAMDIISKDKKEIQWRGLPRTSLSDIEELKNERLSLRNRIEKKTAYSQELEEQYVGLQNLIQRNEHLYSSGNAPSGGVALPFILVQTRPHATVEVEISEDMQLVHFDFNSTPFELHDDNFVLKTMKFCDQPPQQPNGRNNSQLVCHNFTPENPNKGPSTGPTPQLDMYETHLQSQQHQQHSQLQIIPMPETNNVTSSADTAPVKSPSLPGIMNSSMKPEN
The test is described as follows: affinity purification with mass spectrometry; FP-IP: anti-GFP antibody on magnetic beads, total protein extracts (4 mg/IP) of Arabidopsis seedlings expressing the GFP- or CFP-tagged bait under its own promoter; GFP alone as control; standard conditions, various growth regimes (meta-analysis of 182 IPs), with or without 50 uM cisplatin for 24 h; label-free LC-MS/MS.

Test [5] has as its target T4, E2FC-GFP (Arabidopsis thaliana) (UniProt Q9FV70).
T4 sequence: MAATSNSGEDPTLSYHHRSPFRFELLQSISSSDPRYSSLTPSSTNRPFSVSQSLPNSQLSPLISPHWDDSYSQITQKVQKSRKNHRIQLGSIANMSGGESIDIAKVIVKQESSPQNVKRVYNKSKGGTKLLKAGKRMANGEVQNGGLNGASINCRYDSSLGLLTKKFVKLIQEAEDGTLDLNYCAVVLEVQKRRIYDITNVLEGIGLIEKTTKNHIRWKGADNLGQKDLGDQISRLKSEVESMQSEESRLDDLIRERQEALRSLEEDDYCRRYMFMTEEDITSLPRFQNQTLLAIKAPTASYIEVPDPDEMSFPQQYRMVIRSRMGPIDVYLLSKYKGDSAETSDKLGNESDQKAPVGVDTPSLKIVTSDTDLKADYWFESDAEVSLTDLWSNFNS
Described as above.

For test [6], the target named is T5, RBR1-GFP (Arabidopsis thaliana) (UniProt Q9LKZ3).
T5 sequence: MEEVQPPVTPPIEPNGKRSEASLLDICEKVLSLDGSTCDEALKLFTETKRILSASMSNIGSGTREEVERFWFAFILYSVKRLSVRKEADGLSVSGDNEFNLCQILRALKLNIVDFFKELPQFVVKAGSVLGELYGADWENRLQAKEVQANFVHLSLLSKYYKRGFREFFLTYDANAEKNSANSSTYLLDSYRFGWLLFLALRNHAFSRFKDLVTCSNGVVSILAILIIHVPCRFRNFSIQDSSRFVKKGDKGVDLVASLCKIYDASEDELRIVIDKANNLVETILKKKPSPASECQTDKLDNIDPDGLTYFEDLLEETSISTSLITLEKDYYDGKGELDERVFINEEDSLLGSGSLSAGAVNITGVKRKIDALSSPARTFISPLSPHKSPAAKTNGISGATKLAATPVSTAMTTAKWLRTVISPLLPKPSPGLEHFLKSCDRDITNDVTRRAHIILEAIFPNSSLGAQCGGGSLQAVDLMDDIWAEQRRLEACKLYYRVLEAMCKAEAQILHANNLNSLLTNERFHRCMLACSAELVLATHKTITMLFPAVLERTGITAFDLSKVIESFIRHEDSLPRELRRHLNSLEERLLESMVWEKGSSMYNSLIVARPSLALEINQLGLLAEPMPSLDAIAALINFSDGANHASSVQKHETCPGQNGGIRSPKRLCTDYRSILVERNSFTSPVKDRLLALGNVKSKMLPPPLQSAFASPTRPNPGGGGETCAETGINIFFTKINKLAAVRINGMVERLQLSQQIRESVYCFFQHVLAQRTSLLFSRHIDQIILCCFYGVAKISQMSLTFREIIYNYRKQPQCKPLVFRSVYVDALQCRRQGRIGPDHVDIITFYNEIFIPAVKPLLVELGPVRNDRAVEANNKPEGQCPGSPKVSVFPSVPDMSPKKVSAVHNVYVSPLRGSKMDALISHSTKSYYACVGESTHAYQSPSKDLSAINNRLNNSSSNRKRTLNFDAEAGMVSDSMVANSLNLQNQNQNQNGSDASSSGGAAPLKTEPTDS
The test is described as above.

In test [7] the target is T6, DPA-GFP (Arabidopsis thaliana) (UniProt Q9FNY3).
T6 sequence: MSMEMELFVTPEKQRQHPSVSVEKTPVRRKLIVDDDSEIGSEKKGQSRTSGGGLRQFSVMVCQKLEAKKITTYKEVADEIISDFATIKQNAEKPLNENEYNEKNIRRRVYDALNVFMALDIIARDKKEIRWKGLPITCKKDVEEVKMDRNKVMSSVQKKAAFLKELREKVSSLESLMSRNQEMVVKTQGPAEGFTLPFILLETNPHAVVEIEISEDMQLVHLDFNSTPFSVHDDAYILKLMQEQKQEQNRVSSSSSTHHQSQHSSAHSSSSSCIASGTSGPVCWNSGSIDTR
The description is as above.

Test [8] deals with E2FB-GFP (Arabidopsis thaliana) (UniProt Q9FV71). The description is as above.
Test [9] addresses T7, tagged TCX5 (TAP bait, tag end not told for this result) (Arabidopsis thaliana) (UniProt Q9SZD1).
T7 sequence: T1 sequence
Put plainly: affinity purification with mass spectrometry; tandem affinity purification (GS^rhino tag) from Arabidopsis PSB-D cell suspension cultures expressing the tagged bait under the 35S promoter; 30 uM cisplatin added 16 h before harvest; 100 mg total protein extract; on-bead digest, LC-MS/MS; in ….

With CDKA;1 (from UniProt P24100 1-294), the binding entry in [1] and in [2] was “no binding” in each case.

Consider E2FE/DEL1 (from UniProt Q8LSZ4 1-403), for which the binding entry in [1] was “binds”; in [3] it was “no binding”; in test [2] it was “binds”.

Take LIN37A: the binding entry in [4], in test [5], in test [6], in test [1] and in test [2] was “binds” throughout.

As for LIN37B, the binding entry in test [4], in [5], in test [1] and in test [2] was “binds” in each case.

On to LIN52A/DRC1, for which the binding entry in test [7], in [4], in [5], in test [6], in [1] and in test [2] was “binds” in each case.

Turning to LIN52B (from UniProt F4JTM3), the binding result in [3] is “no binding”; in test [2] it was “binds”.

For MSI1 (from UniProt O22467 1-424), the binding result in test [7], in [4], in [8], in [5], in [6] and in [1] was “binds” each time. The binding entry in [3] and in test [2] was “binds” throughout.

Consider NAC044 (from UniProt F4J4R5), for which the binding result in test [3] is recorded as “binds”.

Regarding ONEIRIC 1 (ONE1) (from UniProt F4IWE2), in test [9], the binding result is recorded as “binds”.
